# Test results: publication PMC3281193, “Quinol derivatives as potential trypanocidal agents” (Bioorganic & Medicinal Chemistry, 2012)
# Some entries repeat one wording, which the source may state once for all of them.
# Key:
# T. brucei AT1 KO = assay: 96-well manual assay on AT1 double knock out T. brucei (P2 transporter knock out); format: cell-based, Trypanosoma brucei; settings: wild type versus P2 knock out strain
# Procedure: In order to determine if analogues 35, 38, 44 and 46 are substrates for the P2 transporter they were assayed against a line of T. brucei lacking the gene which codes for the P2 transporter (Table 2).[33] […] Compounds 8 and 19,[25] which contain the triazole and indolyl quinol pharmacophore respectively, but lack a P2 motif, served as negative controls.
# (§1) The 96-well HTS assays against blood stream form T. brucei[38] and MRC5 cells were carried out as reported previously.[39] The manual assays performed on the AT1 double knock out T. brucei and wild type T. brucei were conducted as described by Jones et al.[39]
# [1] = tested on: blood stream form T. brucei; assay: 96-well HTS assay against blood stream form T. brucei; format: cell-based, Trypanosoma brucei; settings: species selectivity; for Spec. select.: EC50 (MRC5)/EC50 (T. brucei): Table 2
# Procedure: as §1
Compound,substrate for the P2 transporter protein (T. brucei AT1 KO),Spec. select.: EC50 (MRC5)/EC50 (T. brucei) [1],Spec. select: EC50 (MRC5)/EC50 (T. brucei) ([1]; Table 1)
"Nc1nc(N)nc(NCCCNC(=O)CCc2ccc(S(=O)(=O)n3c(C4(O)C=CC(=O)C=C4)cc4ccccc43)cc2)n1 [Compound 46, N-(3-((4,6-Diamino-1,3,5-triazin-2-yl)amino)propyl)-3-(4-((2-(1-hydroxy-4-oxocyclohexa-2,5-dien-1-yl)-1H-indol-1-yl)sulfonyl)phenyl)propanamide]",not substrates for the P2 transporter protein,,
"Nc1nc(N)nc(-n2cc(C3(O)C=CC(=O)C=C3)nn2)n1 [Compound 38, 4-(1-(4,6-Diamino-1,3,5-triazin-2-yl)-1H-1,2,3-triazol-4-yl)-4-hydroxycyclohexa-2,5-dienone]",not substrates for the P2 transporter protein,>8,
"COC(=O)CCc1ccc(S(=O)(=O)n2c(C3(O)C=CC(=O)C=C3)cc3ccccc32)cc1 [Compound 19, Methyl 3-(4-((2-(1-hydroxy-4-oxocyclohexa-2,5-dien-1-yl)-1H-indol-1-yl)sulfonyl)phenyl) propanoate]",,1.8,
"N=C(N)c1ccc(-n2cc(C3(O)C=CC(=O)C=C3)nn2)cc1 [Compound 35, 4-(4-(1-Hydroxy-4-oxocyclohexa-2,5-dienyl)-1H-1,2,3-triazol-1-yl)benzimidamide]",not substrates for the P2 transporter protein,>5,
"Nc1nc(N)nc(NCCCOC(=O)CCc2ccc(S(=O)(=O)n3c(C4(O)C=CC(=O)C=C4)cc4ccccc43)cc2)n1 [Compound 44, 3-((4,6-Diamino-1,3,5-triazin-2-yl)amino)propyl 3-(4-((2-(1-hydroxy-4-oxocyclohexa-2,5-dien-1-yl)-1H-indol-1-yl)sulfonyl)phenyl)propanoate]",not substrates for the P2 transporter protein,,
COc1ccc(-n2cc(C3(O)C=CC(=O)C=C3)nn2)cc1 [Compound 8],,2.4,
CC(=O)OC[C@H]1O[C@@H](n2cc(C3(O)C=CC(=O)C=C3)nn2)[C@H](OC(C)=O)[C@@H](OC(C)=O)[C@H]1OC(C)=O [Compound 11],,,>5
